According to PubChem BioAssay AID504467 (National Center for Advancing Translational Sciences (NCATS), 2011):
About 7,700 (2.3%) of roughly 330,000 compounds were called active. The inconclusive results got no clear call from the source; some entries with a clear call stand among them for comparison. Calls follow the shape of the dose curve; as a rule, active = well fitted inhibition curve with a large enough effect; inconclusive = small, poorly fitted or top-dose-only effect, or effect the other way; inactive = flat fitted curve, though single readings scatter. Potencies beside an inconclusive call are fits to weak or partial responses and may not hold up.

experiment: qHTS screen for small molecules that inhibit ELG1-dependent DNA repair in human embryonic kidney (HEK293T) cells expressing luciferase-tagged ELG1; conditions: HEK293T ELG1-luciferase reporter, luminescence, 16 h, DNA damage induced by 5-fluorouridine; activity change, negative = inhibition: at 46.1 µM (top of the series); also: nearly all actives have a fitted effect of over 55% in size
How it was run: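 5-Fluorouridine DNA damage + compound/DMSO, 2,000 cells/well, 16 h, 37 °C/5% CO2. ONE-Glo, 30 min RT, luminescence. Readout = decrease in reporter signal.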
% is scaled to controls: 0 for no effect and ±100 for the full control effect; potency is read from the fitted curve at half-maximal effect.

SMILES	Potency	activity change, negative = inhibition
C=CCn1c(SCC(=O)Nc2c(C)n(C)n(-c3ccccc3)c2=O)nc2scc(-c3ccccc3)c2c1=O	active: 23.1 µM	–
Cc1nonc1NC(=O)CSc1ccccn1	–	inactive: 3.83%
COc1ccccc1-c1sc2cc3c(cc2c1C#CCO)OCO3	inconclusive: 20.6 µM [inhibitor, partial curve, poor fit]	–
Clc1ccccc1-c1cc(COc2ccc3ccccc3c2)no1	inconclusive: 20.6 µM [activator, single point]	–
CCN(CC)C(=O)CSc1nc(N)c2c3c(sc2n1)CC(C)CC3 (stereo not drawn)	inconclusive: 29.1 µM [inhibitor, single point]	–
CCN(CC)S(=O)(=O)c1ccc(N2CCCCC2)c(NC(=O)/C=C/c2ccc(OC)c(OC)c2)c1	inconclusive: 5.17 µM [inhibitor, full curve]	–
Cc1ccc2c(C(=O)CSc3ccccc3)c(C)[nH]c2c1	inconclusive: 13 µM [activator, partial curve]	–
CCn1ccnc1CNC(=O)c1ccc2oc(CCCc3ccccc3)nc2c1	–	inactive: 0%
Cc1cc(-c2nc3cccnc3s2)ccc1NS(=O)(=O)c1ccc2c(c1)OCCO2	inconclusive: 32.6 µM [activator, partial curve, poor fit]	–
O=C(c1ccc2c(c1)OCO2)N1CCN=C1SCc1cccnc1	inconclusive: 23.1 µM [inhibitor, partial curve, poor fit]	–
CC1CCN(CC(O)COCCC23CC4CC(CC(C4)C2)C3)CC1 (stereo not drawn)	inconclusive: 20.6 µM [inhibitor, single point]	–
COc1cc(C(=O)N2CCN(c3ccccc3)CC2)c([N+](=O)[O-])cc1OC	inconclusive: 20.6 µM [inhibitor, partial curve]	–
CCn1c(C(=O)NC(C)c2ccc3c(c2)OCCO3)cc2sccc21 (stereo not drawn)	–	inactive: -3.85%
Cc1c(C(=O)NCCC2=CCCCC2)sc2ncnc(N3CCCCC3C)c12 (stereo not drawn)	inconclusive: 25.9 µM [inhibitor, single point]	–
COc1ccc(-c2cc3c(=O)n(CC(=O)N4CCCCC4)ncn3n2)cc1	inconclusive: 16.4 µM [activator, single point]	–
CC(Nc1nc(N2CCN(S(C)(=O)=O)CC2)nc2ccccc12)c1ccccc1 (stereo not drawn)	inconclusive: 20.6 µM [inhibitor, single point]	–
CCN(CC(=O)Nc1ccc2c(c1)OCCO2)C(=O)c1ccc(C(F)(F)F)cc1	inconclusive: 10.3 µM [activator, partial curve]	–
CCN(CC)C(=O)C1CC(c2ccc(OC)cc2)=NO1 (stereo not drawn)	–	inactive: 0%
CN(CC(=O)NCCC1=CCCCC1)S(=O)(=O)c1ccc2c(c1)c(=O)n(C)c(=O)n2C	inconclusive: 18.4 µM [inhibitor, partial curve, poor fit]	–
CC(=O)Nc1ccc(NC(=O)CSc2ncc(C(=O)Nc3ccc(Cl)cc3)c(=O)n2C)cc1	inconclusive: 14.6 µM [activator, partial curve, poor fit]	–
CC(C)(C)C(=O)CSc1ncnc2c1cnn2-c1ccccc1	inconclusive: 2.06 µM [activator, full curve]	–
c1ccc2c(N3CCOCC3)nc(N3CCOCC3)nc2c1	inconclusive: 29.1 µM [inhibitor, single point]	–
O=C1CN(c2nc(-c3cccnc3)nc3sc4c(c23)CCCC4)CCN1	inconclusive: 29.1 µM [inhibitor, single point]	–

SMILES	Potency	activity change, negative = inhibition
CCOC(=O)C1=CN(Cc2cccc(F)c2)S(=O)(=O)N(CC)C1c1ccc(C(F)(F)F)cc1 (stereo not drawn)	–	inactive: -2.04%
FC(F)(F)c1ccnc(Sc2n[nH]c(C(F)(F)F)n2)c1	–	inactive: -7.73%
O=C(NCC(c1cccnc1)N1CCN(c2ccccc2F)CC1)c1cccc(Cl)c1 (stereo not drawn)	inconclusive: 18.4 µM [inhibitor, single point]	–
COC1(OC)N=C(N)C2(C#N)C(c3ccc(C)cc3)C12C#N (stereo not drawn)	–	inactive: -3.18%
Cc1ccccc1-c1nc(CS(=O)(=O)CC(=O)N(C)C2CCCCC2)c(C)o1	inconclusive: 14.6 µM [inhibitor, partial curve, poor fit]	–
O=C(Nc1ccc(CN2CCOCC2)cc1)c1ccc(Cl)cc1Cl	inconclusive: 16.4 µM [activator, partial curve, poor fit]	–
Cn1cc(Cl)c(-c2nc3ccccc3[nH]2)n1	inconclusive: 10.3 µM [activator, partial curve]	–
O=[N+]([O-])c1ccc(N2CCN(c3ccccc3F)CC2)nc1	–	inactive: 2.07%
O=C1Nc2cccnc2N(C(=O)CCl)c2ccccc21	active: 20.6 µM	–
CC(C)N1CCc2c(sc(NC(=O)c3ccc(C(=O)c4ccccc4)cc3)c2C(N)=O)C1	inconclusive: 18.3 µM [inhibitor, single point]	–
CC(NC(=S)NNS(=O)(=O)c1cccc([N+](=O)[O-])c1)c1ccccc1 (stereo not drawn)	–	inactive: -11%
CS/C(=N\S(=O)(=O)c1cccs1)Nc1ccc(N2CCOCC2)cc1	inconclusive: 6.51 µM [inhibitor, single point]	–
COc1cc(NC(=O)NC2Cc3ccccc3C2)cc(OC)c1	inconclusive: 20.6 µM [activator, single point]	–
Cc1cc(C=O)c(C)n1-c1sc2c(c1C(=O)O)CCCC2	–	inactive: -5.71%
O=C(O)c1cccc(-c2ccc(/C=C3/SC(=Nc4ccccc4)N(Cc4cccnc4)C3=O)o2)c1	inconclusive: 20.6 µM [activator, partial curve]	–
C[C@H](CO)N1C[C@H](C)[C@@H](CN(C)C(=O)NC2CCCCC2)Oc2c(NC(=O)C3CC3)cccc2C1=O	inconclusive: 32.6 µM [activator, partial curve, poor fit]	–
CC(=O)N1CC(C)Sc2ccc(S(=O)(=O)NCCc3cccc(C)c3)cc21 (stereo not drawn)	–	inactive: -9.15%
COc1cc(NC(=O)C2CC(c3ccc(Cl)cc3)=NO2)cc(OC)c1OC (stereo not drawn)	inconclusive: 18.3 µM [inhibitor, single point]	–
CC(=O)Nc1ccc(S(=O)(=O)N(Cc2ccccc2)C(C)C)cc1	–	inactive: -7.8%
CCN(CC)c1ccc2cc(C(=O)NCc3ccc(F)cc3)c(=N)oc2c1	inconclusive: 20.6 µM [inhibitor, partial curve, poor fit]	–
O=C(Sc1cccc2cccnc12)c1ccc(F)cc1	inconclusive: 29.1 µM [inhibitor, single point]	–
Cc1cc(C)c2nc(-c3ccncc3)cc(C(=O)N3CCN(Cc4ccccc4Cl)CC3)c2c1	inconclusive: 29.1 µM [inhibitor, partial curve, poor fit]	–
CCN(CC)c1ccc(NC(=O)c2ccco2)c(C)c1	inconclusive: 29.1 µM [activator, single point]	–

SMILES	Potency	activity change, negative = inhibition
CCOC(=O)N1CCC(NCc2c(C(=O)N(C)Cc3ccccc3)nc3ccccn23)CC1	–	inactive: -5.71%
O=c1oc2cc(Cl)ccc2n1CSc1nc2ccccc2s1	inconclusive: 14.6 µM [activator, partial curve]	–
COC(=O)c1c(C)oc2ccc(N(C(=O)c3ccncc3)S(=O)(=O)c3ccc(C)cc3C)cc12	inconclusive: 1.3 µM [inhibitor, full curve]	–
O=C(O)c1cccc(COc2ccccc2Cl)c1	inconclusive: 6.31 µM [inhibitor, full curve, poor fit]	–
NNc1nc(Nc2ccccc2)nc(Nc2ccccc2)n1	active: 16.4 µM	–
O=C(Nc1ccc(Cl)cc1)Nc1nnc(CSCc2ccc(Cl)cc2)s1	inconclusive: 6.51 µM [inhibitor, single point]	–
CN1CCN(CC(=O)Nc2ccc(Cl)cc2Cl)CC1	–	inactive: 16.2%
N#C/C(=C\c1ccncc1)c1nc2ccccc2o1	inconclusive: 20.6 µM [activator, single point]	–
O=c1c2ccccc2[nH]c2ccc(F)cc12	inconclusive: 11.6 µM [inhibitor, partial curve]	–
COc1cc2sc3cc(NCc4ccc5c(c4)OCO5)ccc3c(=O)c2cc1OC	inconclusive: 29.1 µM [inhibitor, single point]	–
O=[N+]([O-])c1ccccc1-c1ccc(/C=N/n2cnnc2)o1	–	inactive: 1.86%
Cc1cccc2cc(-c3nc4c(C)cccn4c3NCc3ccco3)c(=O)[nH]c12	inconclusive: 20.6 µM [inhibitor, single point]	–
O=C(Nc1ccccc1N1CCOCC1)C1(c2ccc(Cl)cc2)CCC1	inconclusive: 29.1 µM [inhibitor, single point]	–
O=C(/C=C/c1c(Cl)cccc1Cl)NCc1ccco1	inconclusive: 20.6 µM [activator, single point]	–
CN1CCN(C(=S)NC(=O)c2ccc(S(=O)(=O)N3CCOCC3)cc2)CC1	–	inactive: 2.18%
CC1(NC(=O)CCc2nc3sc4c(c3c(=O)[nH]2)CCCC4)CCS(=O)(=O)C1 (stereo not drawn)	inconclusive: 20.6 µM [activator, single point]	–
Cc1ccc(-n2c(SCC(=O)N/N=C/c3c(C)nn(-c4ccccc4)c3C)nc3ccccc3c2=O)cc1	active: 23.1 µM	–
O=C(NCC1CCCCC1)c1ccc(F)cc1Cl	inconclusive: 15.8 µM [activator, partial curve, poor fit]	–
CCOc1ccc(Br)cc1C(=O)N/N=C/c1c[nH]c2ccccc12	–	inactive: -20.7%
O=C(CCCOc1ccc(Cl)cc1Cl)Nc1ccccc1C(=O)O	inconclusive: 9.2 µM [activator, partial curve]	–
COc1ccc(-c2cc(C(F)F)n3ncc(C(=O)N4CCN(C(=O)c5ccco5)CC4)c3n2)cc1	active: 3.26 µM	–
COc1ccc(/C=N/N=C2/NC(=O)C(CC(=O)O)S2)cc1OCc1ccc(Cl)cc1 (stereo not drawn)	–	inactive: 9.54%

Filtered by structure, the compounds so far with a CF3 group
SMILES	Potency	activity change, negative = inhibition
CCN(CC(=O)Nc1ccc2c(c1)OCCO2)C(=O)c1ccc(C(F)(F)F)cc1	inconclusive: 10.3 µM [activator, partial curve]	–
CCOC(=O)C1=CN(Cc2cccc(F)c2)S(=O)(=O)N(CC)C1c1ccc(C(F)(F)F)cc1 (stereo not drawn)	–	inactive: -2.04%
FC(F)(F)c1ccnc(Sc2n[nH]c(C(F)(F)F)n2)c1	–	inactive: -7.73%
